To fix the notation:
B1: POU4F1 (protein, UniProt Q01851 1-419)
chain: MMSMNSKQPHFAMHPTLPEHKYPSLHSSSEAIRRACLPTPPLQSNLFASLDETLLARAEALAAVDIAVSQGKSHPFKPDATYHTMNSVPCTSTSTVPLAHHHHHHHHHQALEPGDLLDHISSPSLALMAGAGGAGAAAGGGGAHDGPGGGGGPGGGGGPGGGPGGGGGGGPGGGGGGPGGGLLGGSAHPHPHMHSLGHLSHPAAAAAMNMPSGLPHPGLVAAAAHHGAAAAAAAAAAGQVAAASAAAAVVGAAGLASICDSDTDPRELEAFAERFKQRRIKLGVTQADVGSALANLKIPGVGSLSQSTICRFESLTLSHNNMIALKPILQAWLEEAEGAQREKMNKPELFNGGEKKRKRTSIAAPEKRSLEAYFAVQPRPSSEKIAAIAEKLDLKKNVVRVWFCNQRQKQKRMKFSATY
B2: WDR20 (protein, UniProt Q8TBZ3 1-569)
chain: MATEGGGKEMNEIKTQFTTREGLYKLLPHSEYSRPNRVPFNSQGSNPVRVSFVNLNDQSGNGDRLCFNVGRELYFYIYKGVRKAADLSKPIDKRIYKGTQPTCHDFNHLTATAESVSLLVGFSAGQVQLIDPIKKETSKLFNEERLIDKSRVTCVKWVPGSESLFLVAHSSGNMYLYNVEHTCGTTAPHYQLLKQGESFAVHTCKSKSTRNPLLKWTVGEGALNEFAFSPDGKFLACVSQDGFLRVFNFDSVELHGTMKSYFGGLLCVCWSPDGKYIVTGGEDDLVTVWSFVDCRVIARGHGHKSWVSVVAFDPYTTSVEEGDPMEFSGSDEDFQDLLHFGRDRANSTQSRLSKRNSTDSRPVSVTYRFGSVGQDTQLCLWDLTEDILFPHQPLSRARTHTNVMNATSPPAGSNGNSVTTPGNSVPPPLPRSNSLPHSAVSNAGSKSSVMDGAIASGVSKFATLSLHDRKERHHEKDHKRNHSMGHISSKSSDKLNLVTKTKTDPAKTLGTPLCPRMEDVPLLEPLICKKIAHERLTVLIFLEDCIVTACQEGFICTWGRPGKVVSFNP

Sequences of proteins named here, by UniProt entry; tags and fusion partners are left off.
UniProt P62068: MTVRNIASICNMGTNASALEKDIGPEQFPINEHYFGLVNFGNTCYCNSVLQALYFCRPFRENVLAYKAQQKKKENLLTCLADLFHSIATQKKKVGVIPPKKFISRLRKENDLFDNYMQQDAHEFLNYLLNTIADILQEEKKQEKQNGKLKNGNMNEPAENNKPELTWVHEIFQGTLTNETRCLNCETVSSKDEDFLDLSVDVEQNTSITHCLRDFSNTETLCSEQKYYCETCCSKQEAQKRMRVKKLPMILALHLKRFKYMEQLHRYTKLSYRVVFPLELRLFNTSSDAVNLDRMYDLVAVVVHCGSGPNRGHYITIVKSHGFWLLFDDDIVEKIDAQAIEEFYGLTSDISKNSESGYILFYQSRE
UniProt Q8TAF3: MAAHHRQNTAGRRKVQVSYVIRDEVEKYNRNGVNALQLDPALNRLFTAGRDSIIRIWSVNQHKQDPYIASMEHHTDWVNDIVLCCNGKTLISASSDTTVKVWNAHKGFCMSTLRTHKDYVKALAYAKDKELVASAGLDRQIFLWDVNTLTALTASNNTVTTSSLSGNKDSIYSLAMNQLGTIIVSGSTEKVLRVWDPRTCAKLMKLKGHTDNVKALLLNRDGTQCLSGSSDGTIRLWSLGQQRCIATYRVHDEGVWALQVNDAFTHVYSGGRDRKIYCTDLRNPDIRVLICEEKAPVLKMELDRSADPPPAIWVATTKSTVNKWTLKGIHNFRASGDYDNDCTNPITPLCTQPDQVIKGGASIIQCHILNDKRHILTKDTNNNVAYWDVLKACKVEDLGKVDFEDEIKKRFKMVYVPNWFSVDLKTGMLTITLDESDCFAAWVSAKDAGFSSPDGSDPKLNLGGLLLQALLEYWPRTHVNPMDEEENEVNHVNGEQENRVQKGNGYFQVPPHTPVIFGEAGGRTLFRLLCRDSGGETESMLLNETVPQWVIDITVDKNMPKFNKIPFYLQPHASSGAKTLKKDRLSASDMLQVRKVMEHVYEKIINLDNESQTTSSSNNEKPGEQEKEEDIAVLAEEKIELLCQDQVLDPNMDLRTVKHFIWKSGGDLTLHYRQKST

These are yes or no findings as the source states them, for the method shown. In cells and extracts the contact can be indirect. A yes stands for co-enrichment or nearness to the bait. Other partners may have been found.

Here are results for three molecules from publication PMC12900701.

The test deals with USP46 (USP46 FLAG group) (human) (UniProt P62068). Description: affinity purification with mass spectrometry; IP of USP46 from cell lysate with anti-USP46 antibody and Protein A/G magnetic beads, 4°C, 6 h; IP buffer 50 mM Tris-HCl, 150 mM NaCl, 5 mM EDTA, 1% NP-40, pH 7.4; USP46 FLAG group against vector control group; shotgun mass spectrometry of half of each sample.
Take UAF1 (from UniProt Q8TAF3 1-677): the binding result is on record as “binds”.
As for B1, the binding result is given as “binds”.
Turning to B2, the binding result was “binds”.
